# Data reported in PMC6488667.
# Protein sequences, listed by entry. Tags and fused reporters are not part of them.
# UniProt O00629: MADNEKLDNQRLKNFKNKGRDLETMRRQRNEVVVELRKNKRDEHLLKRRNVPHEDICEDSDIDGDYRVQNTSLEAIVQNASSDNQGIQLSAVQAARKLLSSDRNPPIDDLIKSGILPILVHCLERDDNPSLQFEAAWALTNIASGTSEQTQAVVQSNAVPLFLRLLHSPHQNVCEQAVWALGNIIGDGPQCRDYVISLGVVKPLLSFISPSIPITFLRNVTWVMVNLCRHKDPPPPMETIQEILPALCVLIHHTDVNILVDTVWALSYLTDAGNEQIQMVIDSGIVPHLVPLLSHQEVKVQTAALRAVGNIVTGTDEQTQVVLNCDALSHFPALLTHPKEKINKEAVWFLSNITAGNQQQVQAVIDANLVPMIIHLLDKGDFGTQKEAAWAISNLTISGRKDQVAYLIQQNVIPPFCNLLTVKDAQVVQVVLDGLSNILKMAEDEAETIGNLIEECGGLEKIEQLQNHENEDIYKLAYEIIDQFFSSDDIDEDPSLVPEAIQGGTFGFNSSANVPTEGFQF
# UniProt P52294: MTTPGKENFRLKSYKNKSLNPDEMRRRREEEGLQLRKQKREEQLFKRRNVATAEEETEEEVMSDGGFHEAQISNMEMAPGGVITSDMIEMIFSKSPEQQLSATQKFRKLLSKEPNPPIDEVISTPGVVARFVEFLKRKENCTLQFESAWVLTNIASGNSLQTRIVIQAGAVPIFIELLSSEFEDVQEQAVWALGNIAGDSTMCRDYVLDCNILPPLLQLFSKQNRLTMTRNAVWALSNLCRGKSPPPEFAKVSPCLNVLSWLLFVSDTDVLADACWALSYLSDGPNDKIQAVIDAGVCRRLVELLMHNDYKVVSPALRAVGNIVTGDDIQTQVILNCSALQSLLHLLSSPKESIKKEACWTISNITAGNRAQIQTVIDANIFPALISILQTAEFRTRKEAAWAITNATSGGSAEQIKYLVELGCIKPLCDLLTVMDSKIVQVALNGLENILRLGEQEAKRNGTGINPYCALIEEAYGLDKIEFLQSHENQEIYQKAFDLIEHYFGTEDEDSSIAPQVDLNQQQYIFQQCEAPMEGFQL
# UniProt Q04206: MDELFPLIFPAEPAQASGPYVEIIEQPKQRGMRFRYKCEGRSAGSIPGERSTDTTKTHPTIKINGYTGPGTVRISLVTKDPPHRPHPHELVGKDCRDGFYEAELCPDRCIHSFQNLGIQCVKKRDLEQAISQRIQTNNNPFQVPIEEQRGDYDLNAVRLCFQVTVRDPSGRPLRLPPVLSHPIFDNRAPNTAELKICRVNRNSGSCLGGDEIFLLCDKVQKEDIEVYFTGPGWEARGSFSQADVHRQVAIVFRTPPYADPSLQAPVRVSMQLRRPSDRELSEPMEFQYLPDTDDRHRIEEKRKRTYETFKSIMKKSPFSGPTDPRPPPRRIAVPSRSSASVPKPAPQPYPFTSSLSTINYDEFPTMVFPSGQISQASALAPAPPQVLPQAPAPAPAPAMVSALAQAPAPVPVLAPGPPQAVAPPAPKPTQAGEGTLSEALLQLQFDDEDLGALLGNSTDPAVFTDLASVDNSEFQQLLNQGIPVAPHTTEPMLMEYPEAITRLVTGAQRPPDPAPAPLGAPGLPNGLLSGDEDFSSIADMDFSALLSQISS
# Results are given in words; binding and its absence hold for the method and conditions named. Binding seen in cells or lysates may run through a third protein. Some binding calls cover weakened binding; strength is not graded here.
# Experiments:
# HA-importin α3 = HA-importin α3 (UniProt O00629); assay: co-IP; MDA-MB231 cells expressing HA-importin α3 or α5, treated with SP-8356 and TNF-α; lysis in 50 mM Tris-HCl pH 7.5, 150 mM NaCl, 1% Triton X-100; anti-HA agarose 2 h at 4 °C; Western blot for p65 and HA
# HA-importin α5 = HA-importin α5 (UniProt P52294); assay: as above
substance,measurement,setting,value
NF-κB RelA/p65 subunit (from UniProt Q04206 1-551),binding,HA-importin α3,binds
same,binding,HA-importin α5,binds
